Data: PMC7501100
These are yes or no findings as the source states them, for the method shown. Binding seen in cells or lysates may run through a third protein. Some results given as binding are weak or reduced against the parent protein; the word gives no strength.

Chains of the proteins cited; added tags and fusions are not shown. Lines headed by an entry give the natural chain unless they say otherwise; changes in a name come on top. Residues count along the entry.
UniProt P0DN87, residues 21-165: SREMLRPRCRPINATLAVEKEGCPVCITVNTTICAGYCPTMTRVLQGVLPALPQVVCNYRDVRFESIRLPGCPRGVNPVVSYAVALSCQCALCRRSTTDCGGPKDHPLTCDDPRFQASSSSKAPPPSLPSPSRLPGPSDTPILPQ
UniProt P01215, residues 25-116: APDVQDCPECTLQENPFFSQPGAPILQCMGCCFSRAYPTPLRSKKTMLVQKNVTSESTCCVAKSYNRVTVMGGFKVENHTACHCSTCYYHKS

Experiments:
[1] = biological target: human chorionic gonadotropin beta subunit variant CGB7, His-tagged (human) (UniProt P0DN87); assay: pull-down; Ni-NTA agarose capture of His-tagged CGB from the supernatant of HEK293 cells co-expressing untagged CGA; washes with PBS, 5 and 10 mM imidazole; elution with 250 mM imidazole in PBS; CGA seen by SDS-PAGE (Coomassie) and Western blot with anti-CGA
[2] = biological target: human chorionic gonadotropin beta subunit variant CGB3/5/8, His-tagged (human) (UniProt P0DN86); assay: as above

human chorionic gonadotropin alpha subunit (CGA) (from UniProt P01215 25-116)
binding [1]: binds
binding [2]: binds
